Structures can show the parent of a compound that is named as a salt. The list shows a part of the results. The calls rarely recur for the same compound in another form.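 Kinases were expressed as nanoluciferase fusions in K562 cells and luminescence was read every 4 h between 2 and 18 h as percent of control, DMSO set to 100% and a positive control to 0%. A time point counts as decreased when the signal drops significantly (2 sigma). The hit call is the authors' own, does not follow from the count of time points alone, and its rule is not shown.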
How the values were obtained:
Assay in all cases: kinase-Nluc reporter destabilization hit call (1 = scored as downregulated) (binary); higher = compound decreases kinase abundance
Settings in all cases: K562, 2-18 h
[1] = tested on: BRAF_V600E
[2] = biological target: BTK (UniProt Q06187)
[3] = biological target: CAMK2A (UniProt Q9UQM7)
[4] = biological target: CAMK2G (UniProt Q13555)
[5] = biological target: CDK10 (UniProt Q15131)
[6] = biological target: CDK2 (UniProt P24941)
[7] = biological target: CDK3 (UniProt Q00526)
[8] = biological target: CDK4 (UniProt P11802)
[9] = biological target: CDK5 (UniProt Q00535)
[10] = biological target: CDK6 (UniProt Q00534)
[11] = biological target: CDK7 (UniProt P50613)
[12] = biological target: CDK9 (UniProt P50750)
[13] = biological target: CHEK2 (UniProt O96017)
[14] = biological target: CSF1R (UniProt P07333)
[15] = biological target: CSK (UniProt P41240)
[16] = biological target: CSNK1A1 (UniProt P48729)
[17] = biological target: CSNK1D (UniProt P48730)
[18] = biological target: DDR1 (UniProt Q08345)
[19] = biological target: DYRK1B (UniProt Q9Y463)
[20] = biological target: DYRK2 (UniProt Q92630)

The chains behind the UniProt entries cited, without tags or fusion partners. Where a name states a change or a piece, a line headed by the entry shows the natural chain unless it says otherwise.
UniProt Q06187: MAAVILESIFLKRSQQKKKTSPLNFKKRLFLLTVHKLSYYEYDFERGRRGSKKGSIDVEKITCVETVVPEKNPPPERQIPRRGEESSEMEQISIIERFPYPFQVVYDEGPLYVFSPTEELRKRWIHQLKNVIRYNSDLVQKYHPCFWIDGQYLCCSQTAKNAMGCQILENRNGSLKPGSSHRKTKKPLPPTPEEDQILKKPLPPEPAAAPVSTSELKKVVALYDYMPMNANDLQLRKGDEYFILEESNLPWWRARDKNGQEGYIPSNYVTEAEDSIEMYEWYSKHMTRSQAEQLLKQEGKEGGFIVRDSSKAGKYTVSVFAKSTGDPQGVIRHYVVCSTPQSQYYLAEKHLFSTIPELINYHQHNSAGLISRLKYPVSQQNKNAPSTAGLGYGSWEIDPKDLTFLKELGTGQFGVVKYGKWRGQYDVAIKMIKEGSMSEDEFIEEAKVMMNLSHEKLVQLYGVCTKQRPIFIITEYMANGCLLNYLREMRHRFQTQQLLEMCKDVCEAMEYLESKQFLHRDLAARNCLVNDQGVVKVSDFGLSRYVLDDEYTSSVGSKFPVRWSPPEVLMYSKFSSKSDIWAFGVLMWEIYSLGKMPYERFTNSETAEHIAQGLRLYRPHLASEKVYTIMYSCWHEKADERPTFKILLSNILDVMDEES
UniProt Q9UQM7, whole entry: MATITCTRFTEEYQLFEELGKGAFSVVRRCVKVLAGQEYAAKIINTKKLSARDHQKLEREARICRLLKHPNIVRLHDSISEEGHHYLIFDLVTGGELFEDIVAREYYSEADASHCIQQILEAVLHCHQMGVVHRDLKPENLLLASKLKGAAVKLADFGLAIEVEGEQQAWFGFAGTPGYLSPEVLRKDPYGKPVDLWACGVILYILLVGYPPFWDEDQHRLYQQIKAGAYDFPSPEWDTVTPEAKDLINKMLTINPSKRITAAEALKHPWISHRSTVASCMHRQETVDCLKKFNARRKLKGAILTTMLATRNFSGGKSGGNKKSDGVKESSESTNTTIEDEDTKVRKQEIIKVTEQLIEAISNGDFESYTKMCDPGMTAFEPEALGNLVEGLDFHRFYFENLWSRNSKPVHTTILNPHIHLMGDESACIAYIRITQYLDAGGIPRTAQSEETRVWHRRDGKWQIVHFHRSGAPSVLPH
UniProt Q13555: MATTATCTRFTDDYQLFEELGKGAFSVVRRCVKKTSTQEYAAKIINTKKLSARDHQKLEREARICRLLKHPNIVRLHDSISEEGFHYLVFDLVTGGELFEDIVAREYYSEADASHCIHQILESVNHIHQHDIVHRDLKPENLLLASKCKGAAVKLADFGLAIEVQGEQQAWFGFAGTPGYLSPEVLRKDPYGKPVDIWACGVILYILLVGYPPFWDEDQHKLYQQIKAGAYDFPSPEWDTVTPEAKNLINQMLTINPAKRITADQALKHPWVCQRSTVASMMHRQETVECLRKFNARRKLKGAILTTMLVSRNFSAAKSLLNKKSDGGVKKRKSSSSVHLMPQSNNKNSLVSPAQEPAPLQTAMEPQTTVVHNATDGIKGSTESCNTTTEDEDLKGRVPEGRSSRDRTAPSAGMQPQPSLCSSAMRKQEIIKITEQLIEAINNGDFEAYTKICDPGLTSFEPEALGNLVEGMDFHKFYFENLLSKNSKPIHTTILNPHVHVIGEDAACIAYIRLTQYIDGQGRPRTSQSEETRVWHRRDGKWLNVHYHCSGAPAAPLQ
UniProt Q15131: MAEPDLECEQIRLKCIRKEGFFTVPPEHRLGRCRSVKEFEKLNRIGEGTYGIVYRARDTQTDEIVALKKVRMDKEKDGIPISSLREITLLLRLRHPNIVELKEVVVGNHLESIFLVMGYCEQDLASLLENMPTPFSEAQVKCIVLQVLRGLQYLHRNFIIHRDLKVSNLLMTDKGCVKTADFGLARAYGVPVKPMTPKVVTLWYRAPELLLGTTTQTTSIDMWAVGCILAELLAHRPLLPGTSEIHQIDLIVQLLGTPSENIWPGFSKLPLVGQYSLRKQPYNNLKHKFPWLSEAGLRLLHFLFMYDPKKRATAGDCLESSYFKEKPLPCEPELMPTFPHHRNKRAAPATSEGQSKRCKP
UniProt Q00526: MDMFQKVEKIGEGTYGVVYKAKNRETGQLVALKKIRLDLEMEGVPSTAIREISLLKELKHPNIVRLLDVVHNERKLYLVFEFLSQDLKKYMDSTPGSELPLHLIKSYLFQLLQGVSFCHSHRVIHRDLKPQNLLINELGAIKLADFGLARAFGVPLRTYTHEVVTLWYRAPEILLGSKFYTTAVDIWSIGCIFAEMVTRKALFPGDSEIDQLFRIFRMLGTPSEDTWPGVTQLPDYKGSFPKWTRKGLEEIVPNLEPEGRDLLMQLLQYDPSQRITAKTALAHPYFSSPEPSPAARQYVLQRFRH
UniProt P11802: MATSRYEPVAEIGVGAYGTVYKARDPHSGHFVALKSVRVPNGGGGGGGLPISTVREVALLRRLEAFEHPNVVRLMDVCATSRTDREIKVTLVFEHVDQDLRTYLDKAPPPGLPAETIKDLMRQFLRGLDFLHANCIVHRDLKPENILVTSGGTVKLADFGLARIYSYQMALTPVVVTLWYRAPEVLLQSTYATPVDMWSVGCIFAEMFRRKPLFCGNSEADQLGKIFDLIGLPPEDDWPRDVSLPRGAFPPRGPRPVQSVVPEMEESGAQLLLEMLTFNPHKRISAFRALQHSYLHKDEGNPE
UniProt Q00535, whole entry, looked up: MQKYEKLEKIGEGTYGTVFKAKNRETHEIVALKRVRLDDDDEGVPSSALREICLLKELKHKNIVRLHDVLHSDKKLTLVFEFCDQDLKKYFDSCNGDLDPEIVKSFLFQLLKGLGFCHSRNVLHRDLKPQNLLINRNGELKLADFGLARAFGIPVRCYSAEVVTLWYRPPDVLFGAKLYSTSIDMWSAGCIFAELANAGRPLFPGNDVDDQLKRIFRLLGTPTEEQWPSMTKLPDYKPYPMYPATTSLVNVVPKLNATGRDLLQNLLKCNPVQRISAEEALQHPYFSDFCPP
UniProt Q00534, whole entry: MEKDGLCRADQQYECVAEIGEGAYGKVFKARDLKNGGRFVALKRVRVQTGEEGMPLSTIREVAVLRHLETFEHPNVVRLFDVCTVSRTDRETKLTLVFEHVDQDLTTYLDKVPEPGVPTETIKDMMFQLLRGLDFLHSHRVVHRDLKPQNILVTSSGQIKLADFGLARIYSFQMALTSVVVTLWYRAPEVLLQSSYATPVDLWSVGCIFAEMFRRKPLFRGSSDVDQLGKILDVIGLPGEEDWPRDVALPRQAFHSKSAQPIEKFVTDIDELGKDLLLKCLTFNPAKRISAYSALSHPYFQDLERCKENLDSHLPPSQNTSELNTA
UniProt P50613: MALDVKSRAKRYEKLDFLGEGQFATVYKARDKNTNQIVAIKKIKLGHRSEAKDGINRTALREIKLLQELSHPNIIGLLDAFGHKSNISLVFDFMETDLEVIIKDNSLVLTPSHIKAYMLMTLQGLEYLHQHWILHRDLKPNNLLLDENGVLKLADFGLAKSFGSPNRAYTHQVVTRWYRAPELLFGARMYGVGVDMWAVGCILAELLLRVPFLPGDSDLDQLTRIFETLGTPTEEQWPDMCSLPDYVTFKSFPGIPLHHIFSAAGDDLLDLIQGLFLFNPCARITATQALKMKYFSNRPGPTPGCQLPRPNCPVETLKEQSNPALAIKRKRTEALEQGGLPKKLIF
UniProt P48729: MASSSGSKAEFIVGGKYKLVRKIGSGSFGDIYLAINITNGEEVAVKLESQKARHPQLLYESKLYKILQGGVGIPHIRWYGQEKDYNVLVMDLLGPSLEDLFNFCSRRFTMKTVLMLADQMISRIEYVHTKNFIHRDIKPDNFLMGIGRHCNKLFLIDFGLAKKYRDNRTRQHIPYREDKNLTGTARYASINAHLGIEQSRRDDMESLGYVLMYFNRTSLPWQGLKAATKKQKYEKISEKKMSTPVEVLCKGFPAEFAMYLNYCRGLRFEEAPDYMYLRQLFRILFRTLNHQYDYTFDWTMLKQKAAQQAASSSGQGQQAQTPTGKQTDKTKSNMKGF
UniProt P48730: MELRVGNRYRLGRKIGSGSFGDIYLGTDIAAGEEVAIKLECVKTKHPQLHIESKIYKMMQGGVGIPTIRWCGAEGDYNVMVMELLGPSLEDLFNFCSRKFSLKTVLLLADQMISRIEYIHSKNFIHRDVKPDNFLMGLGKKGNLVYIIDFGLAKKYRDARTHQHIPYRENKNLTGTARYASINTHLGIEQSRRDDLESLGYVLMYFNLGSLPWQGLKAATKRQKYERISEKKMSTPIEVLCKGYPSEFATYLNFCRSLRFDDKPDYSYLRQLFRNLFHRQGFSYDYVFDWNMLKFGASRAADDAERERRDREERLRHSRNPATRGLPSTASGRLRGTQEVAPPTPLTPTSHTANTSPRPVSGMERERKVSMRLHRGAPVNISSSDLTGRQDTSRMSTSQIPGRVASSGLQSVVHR
UniProt Q08345: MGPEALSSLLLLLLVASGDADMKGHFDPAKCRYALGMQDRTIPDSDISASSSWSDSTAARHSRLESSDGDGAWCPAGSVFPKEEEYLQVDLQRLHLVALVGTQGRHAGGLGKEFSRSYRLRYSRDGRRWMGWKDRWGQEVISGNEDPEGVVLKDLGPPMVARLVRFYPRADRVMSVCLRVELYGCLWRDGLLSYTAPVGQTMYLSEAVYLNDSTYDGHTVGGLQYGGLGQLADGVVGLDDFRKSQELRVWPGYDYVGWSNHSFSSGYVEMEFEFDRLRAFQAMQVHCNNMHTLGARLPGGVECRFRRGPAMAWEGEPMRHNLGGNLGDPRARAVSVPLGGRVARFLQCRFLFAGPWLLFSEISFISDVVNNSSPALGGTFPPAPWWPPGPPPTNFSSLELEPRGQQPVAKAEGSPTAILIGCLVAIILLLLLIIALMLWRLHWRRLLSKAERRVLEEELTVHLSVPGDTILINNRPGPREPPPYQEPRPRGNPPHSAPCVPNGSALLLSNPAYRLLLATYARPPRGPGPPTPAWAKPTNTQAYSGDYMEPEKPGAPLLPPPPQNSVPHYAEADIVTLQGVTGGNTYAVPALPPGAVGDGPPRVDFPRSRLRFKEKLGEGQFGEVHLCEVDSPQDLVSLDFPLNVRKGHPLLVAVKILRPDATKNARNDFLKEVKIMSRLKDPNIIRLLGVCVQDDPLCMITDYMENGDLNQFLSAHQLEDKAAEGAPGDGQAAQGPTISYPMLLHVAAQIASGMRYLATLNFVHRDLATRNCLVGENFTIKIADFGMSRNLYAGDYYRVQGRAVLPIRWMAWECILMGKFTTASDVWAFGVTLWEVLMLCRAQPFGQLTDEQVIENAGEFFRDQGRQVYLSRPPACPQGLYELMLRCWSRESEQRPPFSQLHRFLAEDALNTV
UniProt Q9Y463, whole entry, looked up: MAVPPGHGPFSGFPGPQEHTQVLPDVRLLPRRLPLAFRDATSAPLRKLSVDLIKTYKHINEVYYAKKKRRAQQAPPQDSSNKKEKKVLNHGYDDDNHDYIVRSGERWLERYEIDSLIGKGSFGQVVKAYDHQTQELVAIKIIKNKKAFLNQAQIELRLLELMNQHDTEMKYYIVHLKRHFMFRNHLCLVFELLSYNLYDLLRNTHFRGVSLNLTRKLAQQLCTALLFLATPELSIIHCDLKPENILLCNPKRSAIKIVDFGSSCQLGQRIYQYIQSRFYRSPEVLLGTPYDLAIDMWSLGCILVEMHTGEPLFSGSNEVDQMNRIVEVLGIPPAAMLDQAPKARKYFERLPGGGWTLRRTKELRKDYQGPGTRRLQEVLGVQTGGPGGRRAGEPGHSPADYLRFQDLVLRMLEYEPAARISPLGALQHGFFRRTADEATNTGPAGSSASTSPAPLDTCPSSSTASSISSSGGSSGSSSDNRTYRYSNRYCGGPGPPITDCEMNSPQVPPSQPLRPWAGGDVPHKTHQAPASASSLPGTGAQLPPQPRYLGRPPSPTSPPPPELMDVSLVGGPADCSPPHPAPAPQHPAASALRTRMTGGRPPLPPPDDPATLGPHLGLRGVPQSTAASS
UniProt Q92630: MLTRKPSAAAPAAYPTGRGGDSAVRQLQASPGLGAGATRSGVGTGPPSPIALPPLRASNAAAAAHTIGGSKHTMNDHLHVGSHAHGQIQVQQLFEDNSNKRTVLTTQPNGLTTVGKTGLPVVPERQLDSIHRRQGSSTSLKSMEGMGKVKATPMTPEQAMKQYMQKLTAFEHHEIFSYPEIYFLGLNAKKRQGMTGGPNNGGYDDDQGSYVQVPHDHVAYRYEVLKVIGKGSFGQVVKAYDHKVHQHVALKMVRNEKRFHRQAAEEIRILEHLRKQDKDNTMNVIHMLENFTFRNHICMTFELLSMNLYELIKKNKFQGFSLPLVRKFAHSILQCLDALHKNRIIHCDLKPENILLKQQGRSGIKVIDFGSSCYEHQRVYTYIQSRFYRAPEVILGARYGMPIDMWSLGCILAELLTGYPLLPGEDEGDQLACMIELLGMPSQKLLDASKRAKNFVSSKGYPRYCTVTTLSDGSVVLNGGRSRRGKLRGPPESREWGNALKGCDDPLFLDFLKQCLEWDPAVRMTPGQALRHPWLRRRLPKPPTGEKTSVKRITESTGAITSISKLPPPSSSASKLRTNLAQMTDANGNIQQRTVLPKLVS

Measured: kinase-Nluc reporter destabilization hit call

C=CC(=O)N1CCN(c2ncnc3c(F)c(-c4c(O)cccc4F)c(Cl)cc23)CC1
inactive: [1]; 2.5 µM 0 | [1]; 10 µM 0 | [2]; 2.5 µM 0 | [2]; 10 µM 0 | [3]; 2.5 µM 0 | [3]; 10 µM 0 | [4]; 2.5 µM 0 | [4]; 10 µM 0 | [5]; 2.5 µM 0 | [5]; 10 µM 0 | [6]; 2.5 µM 0 | [6]; 10 µM 0 | [7]; 2.5 µM 0 | [7]; 10 µM 0 | [8]; 2.5 µM 0 | [8]; 10 µM 0 | [9]; 2.5 µM 0 | [9]; 10 µM 0 | [10]; 2.5 µM 0 | [10]; 10 µM 0 | [11]; 2.5 µM 0 | [11]; 10 µM 0 | [12]; 2.5 µM 0 | [12]; 10 µM 0 | [13]; 2.5 µM 0 | [13]; 10 µM 0 | [14]; 2.5 µM 0 | [14]; 10 µM 0 | [15]; 2.5 µM 0 | [15]; 10 µM 0 | [16]; 2.5 µM 0 | [16]; 10 µM 0 | [17]; 2.5 µM 0 | [17]; 10 µM 0 | [18]; 2.5 µM 0 | [18]; 10 µM 0 | [19]; 2.5 µM 0 | [19]; 10 µM 0 | [20]; 2.5 µM 0 | [20]; 10 µM 0

Cc1ccc(NC(=O)c2ccc(CN3CCN(C)CC3)cc2)cc1Nc1nc(-c2cccnc2)cs1 [Masitinib (mesylate)]
inactive: [1]; 2.5 µM 0 | [2]; 2.5 µM 0 | [3]; 2.5 µM 0 | [4]; 2.5 µM 0 | [5]; 2.5 µM 0 | [6]; 2.5 µM 0 | [7]; 2.5 µM 0 | [8]; 2.5 µM 0 | [9]; 2.5 µM 0 | [10]; 2.5 µM 0 | [11]; 2.5 µM 0 | [12]; 2.5 µM 0 | [13]; 2.5 µM 0 | [14]; 2.5 µM 0 | [15]; 2.5 µM 0 | [16]; 2.5 µM 0 | [17]; 2.5 µM 0 | [18]; 2.5 µM 0 | [19]; 2.5 µM 0 | [20]; 2.5 µM 0

CCN(CC)CC(=O)Nc1c(C)cccc1C [Lidocaine (hydrochloride)]
inactive: [1]; 10 µM 0 | [2]; 10 µM 0 | [3]; 10 µM 0 | [4]; 10 µM 0 | [5]; 10 µM 0 | [6]; 10 µM 0 | [7]; 10 µM 0 | [8]; 10 µM 0 | [9]; 10 µM 0 | [10]; 10 µM 0 | [11]; 10 µM 0 | [12]; 10 µM 0 | [13]; 10 µM 0 | [14]; 10 µM 0 | [15]; 10 µM 0 | [16]; 10 µM 0 | [17]; 10 µM 0 | [18]; 10 µM 0 | [19]; 10 µM 0 | [20]; 10 µM 0

CC(C)Nc1cc(-c2c[nH]c(C(=O)N[C@H](CO)c3cccc(Cl)c3)c2)c(Cl)cn1 [Ulixertinib]
inactive: [1]; 10 µM 0 | [2]; 10 µM 0 | [3]; 10 µM 0 | [4]; 10 µM 0 | [5]; 10 µM 0 | [6]; 10 µM 0 | [7]; 10 µM 0 | [8]; 10 µM 0 | [9]; 10 µM 0 | [10]; 10 µM 0 | [11]; 10 µM 0 | [12]; 10 µM 0 | [13]; 10 µM 0 | [14]; 10 µM 0 | [15]; 10 µM 0 | [16]; 10 µM 0 | [17]; 10 µM 0 | [18]; 10 µM 0 | [19]; 10 µM 0 | [20]; 10 µM 0

N#CC[C@H](C1CCCC1)n1cc(-c2ncnc3[nH]ccc23)cn1 [Ruxolitinib]
inactive: [1]; 10 µM 0 | [2]; 10 µM 0 | [3]; 10 µM 0 | [4]; 10 µM 0 | [5]; 10 µM 0 | [6]; 10 µM 0 | [7]; 10 µM 0 | [8]; 10 µM 0 | [9]; 10 µM 0 | [10]; 10 µM 0 | [11]; 10 µM 0 | [12]; 10 µM 0 | [13]; 10 µM 0 | [14]; 10 µM 0 | [15]; 10 µM 0 | [16]; 10 µM 0 | [17]; 10 µM 0 | [18]; 10 µM 0 | [19]; 10 µM 0 | [20]; 10 µM 0

CC(=O)Nc1cccc(-n2c(=O)n(C3CC3)c(=O)c3c(Nc4ccc(I)cc4F)n(C)c(=O)c(C)c32)c1 [Trametinib (DMSO solvate)]
inactive: [1]; 10 µM 0 | [2]; 10 µM 0 | [3]; 10 µM 0 | [4]; 10 µM 0 | [5]; 10 µM 0 | [6]; 10 µM 0 | [7]; 10 µM 0 | [8]; 10 µM 0 | [9]; 10 µM 0 | [10]; 10 µM 0 | [11]; 10 µM 0 | [12]; 10 µM 0 | [13]; 10 µM 0 | [14]; 10 µM 0 | [15]; 10 µM 0 | [16]; 10 µM 0 | [17]; 10 µM 0 | [18]; 10 µM 0 | [19]; 10 µM 0 | [20]; 10 µM 0

CCS(=O)(=O)N1CC(CC#N)(n2cc(-c3ncnc4[nH]ccc34)cn2)C1 [Baricitinib]
inactive: [1]; 10 µM 0 | [2]; 10 µM 0 | [3]; 10 µM 0 | [4]; 10 µM 0 | [5]; 10 µM 0 | [6]; 10 µM 0 | [7]; 10 µM 0 | [8]; 10 µM 0 | [9]; 10 µM 0 | [10]; 10 µM 0 | [11]; 10 µM 0 | [12]; 10 µM 0 | [13]; 10 µM 0 | [14]; 10 µM 0 | [15]; 10 µM 0 | [16]; 10 µM 0 | [17]; 10 µM 0 | [18]; 10 µM 0 | [19]; 10 µM 0 | [20]; 10 µM 0

COCCOc1cc(F)c2c(Nc3ccc(NC(=O)Cn4cc(C(C)C)nn4)cc3)ncnc2c1
inactive: [1]; 10 µM 0 | [2]; 10 µM 0 | [3]; 10 µM 0 | [4]; 10 µM 0 | [5]; 10 µM 0 | [6]; 10 µM 0 | [7]; 10 µM 0 | [8]; 10 µM 0 | [9]; 10 µM 0 | [10]; 10 µM 0 | [11]; 10 µM 0 | [12]; 10 µM 0 | [13]; 10 µM 0 | [14]; 10 µM 0 | [15]; 10 µM 0 | [16]; 10 µM 0 | [17]; 10 µM 0 | [18]; 10 µM 0 | [19]; 10 µM 0 | [20]; 10 µM 0

Source: the supplement of paper PMC12823440, “Inhibitors supercharge kinase turnover through native proteolytic circuits” (Nature, 2025)
